Source: PubChem BioAssay AID248 (DTP/NCI, 2004)
The list shows only some results of the screen, not a fair sample: it gathers tests that were run many times, whatever their T/C, doses with no T/C, and many T/C values between a quarter and a half above the control. Other doses and runs of a compound stand elsewhere. T/C: endpoint of the treated group in % of that of the vehicle group. Some doses have a count of surviving animals in place of a T/C: the source files T/C as zero there, which appears to mark a toxic dose or a test without result, not a measured value. Some doses without a T/C left all or most animals alive at the check, yet need not have been tolerated: survival well below the control is almost never listed, so the zero probably covers shortened survival too. Survivors were counted at the toxicity check, usually on the fifth day, unless a day is given; later deaths do not show. Schedules are NCI's codes, read here as Q, the interval in days (D) or hours (H), X, the number of doses. Signs of the kind (2×) stand for listed records that agree. Some entries were tested several times; the results are listed from low to high. Where survival is the endpoint, the PubChem record calls one and a half times the control and up active, and a quarter to a half above the control has no call in these data; cut-offs in other NCI protocols can differ. Some T/C values carry the count of animals alive at the toxicity check (mostly the fifth day); without a count, all were alive then. Some schedules carry Z or #; the key to these is not given.

System: L1210 leukemia ip in BDF1 mice, survival T/C
Experiment: NCI In Vivo Anticancer Drug Screen. Data for tumor model L1210 Leukemia (intraperitoneal) in B6D2F1 (BDF1) mice
Details: T/C endpoint: mean survival time, higher T/C = longer survival

For COc1cccc2c1C(=O)c1c(O)c3c(c(O)c1C2=O)C[C@@](O)(C(=O)CO)C[C@@H]3OC1CC(N)C(O)C(C)O1 (some centres undefined), the survivor count (dose: 2.0 mg/kg/injection, schedule: Q03HX024 (ip), vehicle: water) was 8 of 8, the T/C (dose: 2.0 mg/kg/injection, schedule: Q## X Z (ip), vehicle: water) was 138 % of control and the T/C (dose: 2.1 mg/kg/injection, schedule: Q04DX002 (ip), vehicle: saline) was 121, 124, 133, 144 % of control. The T/C (dose: 2.2 mg/kg/injection, schedule: Q02DX008 (ip), vehicle: clinical formulation) was 137 % of control, the T/C (dose: 2.2 mg/kg/injection, schedule: Q04DX004 (ip), vehicle: clinical formulation) was 128 % of control and the T/C (dose: 2.25 mg/kg/injection, schedule: Q01DX015 (ip), vehicle: clinical formulation) was 145 % of control. For the same compound, the T/C (dose: 2.5 mg/kg/injection, schedule: Q04DX003 (ip), vehicle: water) was 146 % of control, the T/C (dose: 2.59 mg/kg/injection, schedule: Q01DX001 (ip), vehicle: saline) was 147 % of control and the T/C (dose: 2.7 mg/kg/injection, schedule: Q01DX004 (ip), vehicle: saline) was 130 % of control. The T/C (dose: 2.7 mg/kg/injection, schedule: Q01DX009 (ip), vehicle: saline) was 120, 151, 172, 183 % of control, the T/C (dose: 2.88 mg/kg/injection, schedule: Q04DX003 (ip), vehicle: saline) was 139 % of control and the T/C (dose: 3.0 mg/kg/injection, schedule: Q01DX001 (ip), vehicle: saline, evaluated on day 5) was 142 % of control. The T/C (dose: 3.0 mg/kg/injection, schedule: Q01DX001 (ip), vehicle: saline, evaluated on day 60) was 142 % of control, the T/C (dose: 3.0 mg/kg/injection, schedule: Q01DX001 (sc), vehicle: saline, evaluated on day 5) was 94 and 115 % of control and the T/C (dose: 3.0 mg/kg/injection, schedule: Q01DX001 (sc), vehicle: saline, evaluated on day 45) was 94 and 115 % of control. For the same compound, the T/C (dose: 3.0 mg/kg/injection, schedule: Q01DX004 (ip), vehicle: saline) was 148 % of control, the T/C (dose: 3.0 mg/kg/injection, schedule: Q03HX008 (ip), vehicle: saline, evaluated on day 5) was 61 and 94 % of control and the T/C (dose: 3.0 mg/kg/injection, schedule: Q03HX008 (ip), vehicle: saline, evaluated on day 60) was 94 % of control. The survivor count (dose: 3.0 mg/kg/injection, schedule: Q03HX008 (ip), vehicle: saline) was 5 of 10, the T/C (dose: 3.3 mg/kg/injection, schedule: Q02DX008 (ip), vehicle: clinical formulation) was 141 % of control and the T/C (dose: 4.0 mg/kg/injection, schedule: Q01DX001 (ip), vehicle: saline) was 142 % of control. For the same compound, the T/C (dose: 4.0 mg/kg/injection, schedule: Q01DX004 (ip), vehicle: clinical formulation) was 125 % of control, the T/C (dose: 4.0 mg/kg/injection, schedule: Q01DX004 (ip), vehicle: saline, evaluated on day 30) was 86 % of control and the T/C (dose: 4.0 mg/kg/injection, schedule: Q01DX004 (ip), vehicle: saline, evaluated on day 60) was 100 (2×) and 113 % of control. The survivor count (dose: 4.0 mg/kg/injection, schedule: Q01DX004 (ip), vehicle: saline) was 6 of 6, the T/C (dose: 4.0 mg/kg/injection, schedule: Q01DX007 (ip), vehicle: water) was 140 % of control and the survivor count (dose: 4.0 mg/kg/injection, schedule: Q03HX008 (ip), vehicle: water) was 3 of 8 and 8 of 8. The T/C (dose: 4.0 mg/kg/injection, schedule: Q## X Z (ip), vehicle: water) was 126 % of control, the T/C (dose: 4.2 mg/kg/injection, schedule: Q04DX002 (ip), vehicle: saline) was 117, 126, 138, 175 % of control and the T/C (dose: 4.4 mg/kg/injection, schedule: Q01DX001 (ip), vehicle: clinical formulation) was 139 % of control. For the same compound, the T/C (dose: 4.8 mg/kg/injection, schedule: Q04DX003 (ip), vehicle: saline) was 144 % of control, the T/C (dose: 5.0 mg/kg/injection, schedule: Q04DX004 (ip), vehicle: clinical formulation) was 139 % of control and the T/C (dose: 6.0 mg/kg/injection, schedule: Q01DX001 (sc), vehicle: saline, evaluated on day 5) was 102 and 122 % of control. For the same compound, the T/C (dose: 6.0 mg/kg/injection, schedule: Q01DX001 (sc), vehicle: saline, evaluated on day 45) was 102 and 122 % of control, the survivor count (dose: 6.0 mg/kg/injection, schedule: Q01DX004 (ip), vehicle: saline) was 10 of 10, 6 of 6, 8 of 8 (2×) and the T/C (dose: 6.7 mg/kg/injection, schedule: Q01DX001 (ip), vehicle: clinical formulation) was 140 % of control. For the same compound, the T/C (dose: 7.5 mg/kg/injection, schedule: Q01DX001 (sc), vehicle: saline, evaluated on day 5) was 115 and 122 % of control, the T/C (dose: 7.5 mg/kg/injection, schedule: Q01DX001 (sc), vehicle: saline, evaluated on day 60) was 115 and 122 % of control and the T/C (dose: 7.5 mg/kg/injection, schedule: Q04DX004 (ip), vehicle: clinical formulation) was 140 % of control. The survivor count (dose: 8.0 mg/kg/injection, schedule: Q01DX004 (ip), vehicle: saline) was 8 of 8 (2×), the survivor count (dose: 8.0 mg/kg/injection, schedule: Q01DX008 (ip), vehicle: saline) was 7 of 8 and the T/C (dose: 8.0 mg/kg/injection, schedule: Q04DX003 (ip), vehicle: saline) was 139 % of control. The survivor count (dose: 8.0 mg/kg/injection, schedule: Q06HX004 (ip), vehicle: water) was 7 of 8, the T/C (dose: 10.0 mg/kg/injection, schedule: Q01DX001 (sc), vehicle: saline, evaluated on day 5) was 114 and 128 % of control and the T/C (dose: 10.0 mg/kg/injection, schedule: Q01DX001 (sc), vehicle: saline, evaluated on day 60) was 114 and 128 % of control. The T/C (dose: 10.0 mg/kg/injection, schedule: Q04DX003 (ip), vehicle: water) was 129 % of control, the T/C (dose: 12.0 mg/kg/injection, schedule: Q01DX001 (sc), vehicle: saline, evaluated on day 5) was 113 and 125 % of control and the T/C (dose: 12.0 mg/kg/injection, schedule: Q01DX001 (sc), vehicle: saline, evaluated on day 45) was 113 and 125 % of control [9 of 10 alive]. For the same compound, the T/C (dose: 12.5 mg/kg/injection, schedule: Q01DX001 (sc), vehicle: saline, evaluated on day 5) was 138 and 162 % of control, the T/C (dose: 12.5 mg/kg/injection, schedule: Q01DX001 (sc), vehicle: saline, evaluated on day 60) was 138 and 162 % of control and the T/C (dose: 15.0 mg/kg/injection, schedule: Q01DX001 (sc), vehicle: saline, evaluated on day 5) was 124 and 131 % of control. For the same compound, the T/C (dose: 15.0 mg/kg/injection, schedule: Q01DX001 (sc), vehicle: saline, evaluated on day 60) was 124 and 131 % of control, the survivor count (dose: 20.0 mg/kg/injection, schedule: Q01DX001 (ip), vehicle: saline) was 8 of 10 and the survivor count (dose: 40.0 mg/kg/injection, schedule: Q01DX001 (ip), vehicle: saline) was 4 of 10.
